PubChem BioAssay AID652243 | Drosophila RNAi Screening Center – 2013
Purpose: 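Knock-downs that decrease or increase androgen receptor reporter signal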 (primary screen). System: Drosophila S2R+ cells. Knock-down reagent: long dsRNA against Drosophila genes. Timing: 72 h (48 h, then 24 h hormone). Treatment: synthetic androgen R1881 at 10 nM for 24 h. Detection: 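Firefly light from an androgen-responsive reporter and Renilla control light per well, raw and unnormalised, for each of two replicates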. Scale: firefly reporter light: higher = more light from androgen-responsive reporter; Renilla control light: higher = more constitutive control signal (cell number, transfection). Hit rule: 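Hit when the log firefly-to-Renilla ratio dropped or increased by a fixed fold versus the mean of GFP or LacZ controls across duplicate plates; lowering cut given as 1.5 and as 3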. Meaning of the calls: active = hit: reporter lowered or raised; inactive = no hit.
The screen tested about 24,000 reagents; below is a random part of those that have a named target and a result. Over the whole deposit, 246 (1%) are marked active. 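Plates not normalised; calls are printed but the firefly/Renilla ratio behind them is not deposited; fold cut for lowering reported inconsistently.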 Raw values vary from plate to plate and are shown uncorrected. Entries without a mark were called inactive. The record does not give: the amount of reagent.

| gene | PubChem SID | firefly reporter light, replicate 1 | firefly reporter light, replicate 2 | Renilla control light, replicate 1 | Renilla control light, replicate 2 |
| --- | --- | --- | --- | --- | --- |
| MME1 (Mitochondrial Magnesium Exporter 1) | SID104182506 | 6.46e5 | 8.88e5 | 1.74e6 | 2.45e6 |
| Mat1 (Menage a trois 1) | SID104187257 | 2.46e5 | 1.44e5 | 1.49e6 | 1.13e6 |
| Mat1 (Menage a trois 1) | SID104204499 | 2.57e5 | 3.53e5 | 8.70e5 | 9.97e5 |
| Acp53Ea (Accessory gland protein 53Ea) | SID104185708 | 68163 | 58459 | 1.07e6 | 1.07e6 |
| CG40439 | SID104202092 | 1.11e6 | 7.40e5 | 1.58e6 | 1.35e6 |
| CG40439 | SID104205217 | 2.72e5 | 2.97e5 | 7.47e5 | 4.69e5 |
| CG15020 | SID104188266 | 97969 | 80052 | 9.95e5 | 1.44e6 |
| plx (pollux) | SID104192052 | 46996 | 39228 | 1.21e6 | 1.31e6 |
| plx (pollux) | SID104192177 | 4.09e5 | 3.44e5 | 2.92e6 | 3.04e6 |
| plx (pollux) | SID104202075 | 9.04e5 | 8.32e5 | 2.13e6 | 1.73e6 |
| plx (pollux) | SID104207089 | 3.60e5 | 5.54e5 | 7.97e5 | 1.30e6 |
| TppII (Tripeptidyl-peptidase II) | SID104187357 | 6.67e5 | 5.64e5 | 1.17e6 | 9.13e5 |
| Art2 (Arginine methyltransferase 2) | SID104180419 | 98764 | 55821 | 6.03e5 | 5.57e5 |
| CG14395 | SID104194644 | 1.10e5 | 48719 | 1.72e6 | 1.31e6 |
| ush (u-shaped) | SID104180635 | 7.68e5 | 8.65e5 | 2.65e6 | 1.73e6 |
| ush (u-shaped) | SID104205068 | 2.05e5 | 1.70e5 | 4.24e5 | 5.18e5 |
| Spn75F (Serpin 75F) | SID104189381 | 1.51e5 | 1.52e5 | 3.03e5 | 3.39e5 |
| Cyp313a1 (Cytochrome P450 313a1) | SID104196416 | 1.65e5 | 2.63e5 | 2.46e6 | 3.08e6 |
| Cyp313a1 (Cytochrome P450 313a1) | SID104207356 | 3.90e5 | 4.16e5 | 1.08e6 | 1.28e6 |
| CheB74a (Chemosensory protein B 74a) | SID104216410 | 7.96e5 | 8.42e5 | 1.72e6 | 1.56e6 |
| Clamp (Chromatin-linked adaptor for MSL proteins) | SID104183510 | 1.16e6 | 1.13e6 | 2.03e6 | 2.04e6 |
| Clamp (Chromatin-linked adaptor for MSL proteins) | SID104201363 | 1.03e6 | 1.23e6 | 1.52e6 | 1.20e6 |
| Clamp (Chromatin-linked adaptor for MSL proteins) | SID104208479 | 5.79e5 | 5.66e5 | 9.97e5 | 7.99e5 |
| mbl (muscleblind) | SID104202545 | 9.13e5 | 6.60e5 | 1.63e6 | 1.16e6 |
| mbl (muscleblind) | SID104206863 | 5.89e5 | 7.32e5 | 1.17e6 | 1.36e6 |
| Adgf-A2 (Adenosine deaminase-related growth factor A2) | SID104189299 | 2.50e5 | 81520 | 3.32e5 | 1.69e5 |
| CG13008 | SID104199319 | 3.09e5 | 3.98e5 | 2.03e6 | 2.84e6 |
| CG13008 | SID104199320 | 5.70e5 | 4.94e5 | 3.12e6 | 3.20e6 |
| MED30 (Mediator complex subunit 30) | SID104202492 | 2.94e5 | 2.03e5 | 1.02e6 | 1.14e6 |
| MED30 (Mediator complex subunit 30) | SID104208570 | 9.69e5 | 6.58e5 | 1.12e6 | 1.30e6 |
| CG8128 | SID104199876 | 1.11e5 | 1.18e5 | 6.18e5 | 8.20e5 |

Single entries from the entries so far.
For “firefly reporter light, replicate 2”, plx (pollux) [SID104192052] reads 39228
Under “Renilla control light, replicate 2”, CG8128 [SID104199876] shows 8.20e5
Under “Renilla control light, replicate 2”, MED30 (Mediator complex subunit 30) [SID104202492] has 1.14e6
Entry for Adgf-A2 (Adenosine deaminase-related growth factor A2) [SID104189299] under “firefly reporter light, replicate 1”: 2.50e5
Mat1 (Menage a trois 1) [SID104204499], firefly reporter light, replicate 2 = 3.53e5

Continued.
| gene | PubChem SID | firefly reporter light, replicate 1 | firefly reporter light, replicate 2 | Renilla control light, replicate 1 | Renilla control light, replicate 2 |
| --- | --- | --- | --- | --- | --- |
| CG31848 | SID104181101 | 1.90e5 | 2.42e5 | 4.99e5 | 5.24e5 |
| CR31824 (pseudo) | SID104181309 | 1.47e5 | 1.65e5 | 3.16e5 | 5.05e5 |
| CR31824 (pseudo) | SID104208385 | 5.43e5 | 3.69e5 | 1.23e6 | 1.34e6 |
| dsf (dissatisfaction) | SID104183316 | 69951 | 47085 | 5.34e5 | 6.12e5 |
| dsf (dissatisfaction) | SID104202771 | 4.42e5 | 3.72e5 | 4.16e5 | 4.19e5 |
| CG2694 | SID104198262 | 1.11e5 | 97852 | 1.06e6 | 6.32e5 |
| CG13871 | SID104186222 | 92537 | 77247 | 8.77e5 | 1.02e6 |
| CG13871 | SID104206523 | 5.89e5 | 3.99e5 | 1.83e6 | 1.39e6 |
| mex1 (midgut expression 1) | SID104191160 | 2.66e5 | 1.83e5 | 2.68e6 | 2.09e6 |
| ome (omega) | SID104189114 | 2.67e5 | 2.21e5 | 3.84e5 | 4.77e5 |
| ome (omega) | SID104190074 | 2.17e5 | 1.93e5 | 1.78e6 | 1.76e6 |
| ome (omega) | SID104191172 | 1.31e5 | 1.66e5 | 1.83e6 | 1.54e6 |
| Drp1 (Dynamin related protein 1) | SID104180366 | 9.60e5 | 1.03e6 | 3.23e6 | 1.83e6 |
| Drp1 (Dynamin related protein 1) | SID104204957 | 5.40e5 | 5.14e5 | 5.85e5 | 6.37e5 |
| sob | SID104180630 | 33356 | 34849 | 3.96e5 | 3.99e5 |
| sob | SID104203621 | 5.10e5 | 4.23e5 | 9.24e5 | 6.90e5 |
| CG31706 | SID104202089 | 5.83e5 | 4.85e5 | 1.39e6 | 1.19e6 |
| lncRNA:CR40053 (long non-coding RNA:CR40053) | SID104200625 | 5.60e5 | 4.83e5 | 5.78e5 | 5.07e5 |
| lncRNA:CR40053 (long non-coding RNA:CR40053) | SID104207013 | 2.21e5 | 5.16e5 | 4.37e5 | 9.39e5 |
| lncRNA:CR40053 (long non-coding RNA:CR40053) | SID104208512 | 3.27e5 | 3.41e5 | 1.26e6 | 1.39e6 |
| CG2865 | SID104198319 | 1.10e5 | 1.84e5 | 6.93e5 | 6.63e5 |
| CG2865 | SID104198320 | 1.96e5 | 2.14e5 | 1.74e6 | 2.09e6 |
| CG2865 | SID104206630 | 5.84e5 | 7.65e5 | 8.40e5 | 1.18e6 |
| CG13982 | SID104182106 | 95447 | 1.21e5 | 9.37e5 | 9.16e5 |
| comm (commissureless) | SID104191128 | 1.58e5 | 1.02e5 | 1.71e6 | 1.31e6 |
| comm (commissureless) | SID104203105 | 4.04e5 | 2.93e5 | 6.77e5 | 4.75e5 |
| hll (heimdall) | SID104181736 | 6.99e5 | 9.48e5 | 1.18e6 | 1.16e6 |
